Changes are numbered by the printed parent chain. Construct, isoform or probe ends are uncertain for at least one entry. The comparison behind a weaker result is the experiment's own reference, which may not be listed here. Tags and fusion partners may be left off the protein sequences shown.
Columns and labels:
[1] = target: T1, Hrq1-K318A (Saccharomyces cerevisiae) (UniProt Q05549); experiment: EMSA; details: 7.5 mM Mg2+
T1 sequence (looked up, limits assumed): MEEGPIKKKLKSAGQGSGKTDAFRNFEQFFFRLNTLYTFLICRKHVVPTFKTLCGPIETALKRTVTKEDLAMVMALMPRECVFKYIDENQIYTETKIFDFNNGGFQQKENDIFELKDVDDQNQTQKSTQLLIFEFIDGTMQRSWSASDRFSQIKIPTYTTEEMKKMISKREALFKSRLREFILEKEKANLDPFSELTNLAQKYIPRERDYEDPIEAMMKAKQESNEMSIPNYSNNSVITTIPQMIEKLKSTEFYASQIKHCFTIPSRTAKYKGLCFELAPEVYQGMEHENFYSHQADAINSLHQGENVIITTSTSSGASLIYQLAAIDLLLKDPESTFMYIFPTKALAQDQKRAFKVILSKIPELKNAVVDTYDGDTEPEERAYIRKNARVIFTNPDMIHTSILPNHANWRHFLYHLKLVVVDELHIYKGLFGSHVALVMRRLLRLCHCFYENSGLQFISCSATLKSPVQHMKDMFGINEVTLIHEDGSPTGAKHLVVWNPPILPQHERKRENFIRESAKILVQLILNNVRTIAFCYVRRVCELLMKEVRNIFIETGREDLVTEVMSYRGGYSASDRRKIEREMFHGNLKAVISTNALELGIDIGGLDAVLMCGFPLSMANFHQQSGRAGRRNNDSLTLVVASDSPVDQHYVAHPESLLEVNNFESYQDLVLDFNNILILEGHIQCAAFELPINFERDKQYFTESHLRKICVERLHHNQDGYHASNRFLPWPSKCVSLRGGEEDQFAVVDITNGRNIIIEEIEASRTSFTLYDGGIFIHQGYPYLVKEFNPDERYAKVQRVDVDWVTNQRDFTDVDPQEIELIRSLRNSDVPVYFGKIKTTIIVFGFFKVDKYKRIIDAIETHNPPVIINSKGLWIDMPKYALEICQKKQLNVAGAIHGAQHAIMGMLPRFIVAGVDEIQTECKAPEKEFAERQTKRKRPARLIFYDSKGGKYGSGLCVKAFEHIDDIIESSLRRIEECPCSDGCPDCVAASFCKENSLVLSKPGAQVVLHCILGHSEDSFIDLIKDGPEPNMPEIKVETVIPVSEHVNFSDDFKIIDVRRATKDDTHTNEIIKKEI

[2] = target: T2, Hrq1 (Saccharomyces cerevisiae) (UniProt Q05549); experiment: EMSA; details: 7.5 mM Mg2+
T2 sequence (looked up, limits assumed): T1 sequence (looked up, limits assumed) with A318K

Measured: binding result

TGTGGTGTGTGTGGG [Tel15]
binds more weakly: [1]; 4 mM ATP, very weak but detectable | [1]; no ATP, only basal binding | [2]; 4 mM ATP (no significant effect) | [2]; no ATP

— publication doi:10.1101/327320
